Results from patent US6919204B2, “Modulation of gene expression using localization domains” (Sangamo Biosciences, Inc., priority 2000, dated 2005).
No constants are given. Whether binding was seen depends on the method and setting. In cells and extracts the contact can be indirect. A result given as binding can be weak or reduced; the word gives no strength.

Biological target: MTA1-like (Drosophila)
Test: co-elution on Superose 6 gel filtration (about 1 MDa) after BioRex 70 and MonoQ, immunoblot

B1: Drosophila MBD-likeΔ (protein)
chain: MQMNPSVTIERKRVDCSVLPKGWQRDEVRKSGSSANNNASSNNNSSATASSNNNNNKVDVFYYSRALRTDVSLVPPIRQTASIFKQPVTVIRNHKQDPAKAKNEPKHGTREKPKQLFWEKRLERLRACHDSGEELDDISLPKTIRTVGPNVNEQTVLQSVATALHMLNAGVHGQSSTKADLTKNAMAFMNPEQPLMHAVIISEDDIRKQEDRVGVARRKLQDALKT
Question: How did the binding turn out when B1 was run?
Answer: Its binding is “binds”.
